Our source for the binding values is publication PMC10203227.

Protein sequences, listed by entry. Tags and fused reporters are not part of them.
UniProt O75807: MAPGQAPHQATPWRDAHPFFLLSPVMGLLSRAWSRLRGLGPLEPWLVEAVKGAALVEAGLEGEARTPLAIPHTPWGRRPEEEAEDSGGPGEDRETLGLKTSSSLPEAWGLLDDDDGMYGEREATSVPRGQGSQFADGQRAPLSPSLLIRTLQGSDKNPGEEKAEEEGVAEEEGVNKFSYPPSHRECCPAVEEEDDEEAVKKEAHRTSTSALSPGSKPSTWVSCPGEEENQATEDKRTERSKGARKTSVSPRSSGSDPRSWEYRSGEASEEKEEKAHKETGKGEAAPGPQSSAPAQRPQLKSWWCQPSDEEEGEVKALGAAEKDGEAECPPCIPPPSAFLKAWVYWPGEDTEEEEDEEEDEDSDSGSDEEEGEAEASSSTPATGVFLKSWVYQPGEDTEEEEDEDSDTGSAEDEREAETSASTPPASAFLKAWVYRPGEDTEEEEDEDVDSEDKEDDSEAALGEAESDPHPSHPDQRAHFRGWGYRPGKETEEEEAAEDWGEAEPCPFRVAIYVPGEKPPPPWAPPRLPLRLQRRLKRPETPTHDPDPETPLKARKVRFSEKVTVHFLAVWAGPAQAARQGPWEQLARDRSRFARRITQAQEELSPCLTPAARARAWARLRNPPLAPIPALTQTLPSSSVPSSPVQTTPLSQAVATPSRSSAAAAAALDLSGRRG
UniProt Q00987: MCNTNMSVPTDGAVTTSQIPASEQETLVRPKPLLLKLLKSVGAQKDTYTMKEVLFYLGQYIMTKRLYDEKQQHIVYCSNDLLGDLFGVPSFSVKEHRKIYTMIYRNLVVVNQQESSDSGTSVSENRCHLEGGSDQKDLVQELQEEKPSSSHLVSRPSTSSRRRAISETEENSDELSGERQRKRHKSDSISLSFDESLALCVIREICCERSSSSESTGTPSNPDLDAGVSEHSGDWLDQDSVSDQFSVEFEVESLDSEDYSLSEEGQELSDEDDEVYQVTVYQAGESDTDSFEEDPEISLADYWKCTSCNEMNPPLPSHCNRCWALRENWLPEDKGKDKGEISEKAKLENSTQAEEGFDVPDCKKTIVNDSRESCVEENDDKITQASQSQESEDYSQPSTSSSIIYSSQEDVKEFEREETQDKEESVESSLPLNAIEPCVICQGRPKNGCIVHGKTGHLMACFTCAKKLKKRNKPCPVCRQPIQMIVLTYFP

The target in this assay is growth arrest and DNA-damage-inducible gene 34 (GADD34) (human (endogenous in A549 or U2OS)) (UniProt O75807). As to the kind of experiment: co-IP; cells transfected with scrambled or MDM2 siRNA, treated with MG132 (10 uM, 6 h); lysates in 1% Nonidet P-40 lysis buffer (50 mM Tris-HCl pH 7.6, 150 mM NaCl) immunoprecipitated with anti-GADD34 polyclonal antibody or control IgG, Protein G PLUS-Agarose, washed with 0.1% Nonidet P-40 lysis buffer; Western blot with anti-MDM2. A general note: Immunoblotting shows a protein as a band on a membrane.

No constants are given. Whether binding was seen depends on the method and setting. In cells and extracts the contact can be indirect. Some entries that bind do so weakly or less than the wild type.

As for MDM2 (from UniProt Q00987 1-491), the binding result was “binds”.
